A short description of the assay: qHTS Assay for Lipid Storage Modulators in Drosophila S3 Cells.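 On cell number change: cells counted by Cell Tracker Red CMTPX staining in the red channel.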 The conditions noted are these: BODIPY lipid droplet fluorescence, 18-24 h; for cell number change: measured here: cell count max response, cells fed with added oleic acid. Summed up:
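Laser-scanning cytometry quantifies lipid droplet accumulation (500–530 nm total intensity; droplet/cell object ratio) in oleic acid-fed (400 uM added) Drosophila S3 cells treated with a concentration series. 20 uM Triacsin C defined 100% inhibition.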
In general terms: Quantitative high-throughput screening tests each substance at several concentrations.

The mark [1] stands for this setting: measured here: cell number channel AC50, cells fed with added oleic acid.
Setting [2] is: measured here: lipid fluorescence (Fed channel) AC50, cells fed with added oleic acid.

Some of the results follow. The main result of the screen is listed elsewhere. These columns were measured beside it and carry no call. Compounds called inactive in the main read-out are mostly missing here. Words in brackets tell the shape of the fitted curve; partial curves, single points and poor fits give uncertain potencies.

Turning to `COc1cccc(N2CC(C(=O)Nc3nnc(SCC(=O)Nc4cc(C)on4)s3)CC2=O)c1` (configuration not stated), the cell number change is -21.6%.

As to `COc1cccc(C(=O)N(CN2CCCC2=O)c2ccccc2OC)c1`, the cell number change worked out at 13.7%.

The AC50 is the concentration at which the activity in the assay is half-maximal. Low readings indicate greater potency, high ones weaker potency. As to `Cc1sc2ncnc(N3CCC(C(=O)NNC(=O)COc4cccc(C(F)(F)F)c4)CC3)c2c1C`, the cell number change came to 75%. Also, under setting [1], the AC50 was 23.1 µM [rising, single point].

Regarding `O=C(Nc1ccccc1)c1cccc(N2CCCC2=O)c1`, the cell number change was -23%. Besides, the concentration at half-maximal activity (AC50) under setting [2] was 20.6 µM [rising, single point].

As to `COc1ccccc1CNC(=O)COC(=O)c1ccc([N+](=O)[O-])o1`, the AC50 under setting [2] is 0.58 µM [falling, single point].

In the case of `O=C(NCc1ccccc1)c1ccc(NC(=O)C2CCCO2)cc1` (configuration not stated), under setting [2], the concentration at half-maximal activity (AC50) was 1.64 µM [falling, partial curve].

In the case of `COc1ccccc1OCCNC(=O)c1ccc(C)o1`, the cell number change came to 10.2%. For the same compound, the AC50 under setting [2] was 4.61 µM [rising, single point].

For `COCC(=O)N1CCC(Oc2ccc(C(=O)N3C[C@@H](C)O[C@@H](C)C3)cc2)CC1`, the cell number change was -21.5%. Besides, under setting [1], the half-maximal activity concentration (AC50) was 0.731 µM [falling, full curve].

Turning to `CCn1ncc(C2=NOC(C(=O)NCCc3ccccc3)C2)c1C` (configuration not stated), the cell number change is 56.1%. For the same compound, under setting [1], the AC50 is 23.1 µM [rising, partial curve].

For the compound `CCCn1c(Cc2ccccc2)nnc1SC(C)C(=O)NC1CC1` (configuration not stated), the cell number change amounted to 14.6%. Moreover, under setting [1], the half-maximal activity concentration (AC50) is 0.58 µM [falling, single point]. Also, under setting [2], the AC50 was 29.1 µM [rising, partial curve, poor fit].

Consider `COc1cccc(NC(=O)NCc2ccc(F)cc2)c1`, for which the half-maximal activity concentration (AC50) under setting [1] was 6.51 µM [rising, single point] and the AC50 under setting [2] was 6.51 µM [rising, single point].

With `CCSc1nsc(SCC)c1C(N)=O`, the cell number change was -5.75%. The half-maximal activity concentration (AC50) under setting [2] was 0.103 µM [falling, full curve, poor fit].

As for `COc1ccc(NC(=O)CC(NC(C)c2ccccc2)C(=O)O)cc1` (configuration not stated), the cell number change is -16.4%. The concentration at half-maximal activity (AC50) under setting [2] was 29.1 µM [rising, single point].

`Cc1cc(C(=O)COC(=O)C2=NNC(=O)CC2)c(C)n1CCc1ccccc1`: the cell number change is -66.5%. Besides, the AC50 under setting [1] was 0.116 µM [falling, full curve, poor fit]. Also, the concentration at half-maximal activity (AC50) under setting [2] is 29.1 µM [falling, single point].

For the compound `Cc1ccc(NC(=O)c2cc(C)no2)cc1`, the cell number change was determined as 19.8%.

Consider `CCOC(=O)NC(Nc1ccc(C)cn1)(C(F)(F)F)C(F)(F)F`, for which the cell number change is -46.7%. Also, under setting [1], the concentration at half-maximal activity (AC50) was 11.6 µM [falling, partial curve, poor fit]. Moreover, the AC50 under setting [2] was 20.6 µM [falling, partial curve].

For `COc1ccc(N2CCN(C(=O)CN(c3ccc(Br)cc3)S(C)(=O)=O)CC2)cc1`, the cell number change amounted to 2.33%. Moreover, the half-maximal activity concentration (AC50) under setting [2] is 0.92 µM [rising, full curve, poor fit].

(Values after PubChem BioAssay AID2685 (National Center for Advancing Translational Sciences (NCATS), 2010).)
